Results from PubChem BioAssay AID504834 (National Center for Advancing Translational Sciences (NCATS), 2011).
The whole screen tested about 320,000 compounds, of which about 22,000 (6.9%) were called active. The shares of active, inactive and inconclusive entries below differ from those in the screen. Calls follow the shape of the dose curve; as a rule, active = well fitted inhibition curve with a large enough effect; inconclusive = small, poorly fitted or top-dose-only effect, or another doubt; inactive = no such curve, though single readings can be large or run the other way. Where the call is inconclusive, the potency comes from a doubtful curve fit.

Test: Primary qHTS for delayed death inhibitors of the malarial parasite plastid, 96 hour incubation
Conditions: P. falciparum luciferase reporter growth; series mostly up to 28.7 µM
Procedure, shortened: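 Luminescence readout: decreased luciferase signal marks inhibited growth of reporter-expressing P. falciparum in infected red cells (2% hematocrit, 0.05% parasitemia final), exposed to compound two generations (96 h, 37 C, 5% CO2).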
Potency is read from the fitted curve at half-maximal effect.

| Structure (SMILES) | Potency |
| --- | --- |
| Cc1ccc(-c2cc(C(=O)Nc3ccc(S(=O)(=O)Nc4ncccn4)cc3)c3ccccc3n2)cc1 | inconclusive: 9.28 µM [inhibitor, partial curve, poor fit] |
| Cc1ccc(O)c(N)c1 | inconclusive: 9.28 µM [inhibitor, single point] |
| O=C(COC(=O)c1cccc(S(=O)(=O)NCc2ccccc2)c1)NCC1CCCO1 (stereo not drawn) | inactive |
| COc1ccc(S(=O)(=O)N2CCCCCC2)cc1C(=O)N(C)Cc1ccc(C(C)(C)C)cc1 | active: 13.1 µM |
| Cc1ccc(N(C(=O)CNC(=O)c2ccco2)C(C(=O)NC2CCCCC2)c2ccncc2)cc1F (stereo not drawn) | inconclusive: 4.15 µM [inhibitor, partial curve] |
| O=C(c1cnc2ccccn2c1=O)N1CCCc2ccccc21 | inactive |
| COc1cccc(/C=N/Nc2nc3ccccc3n3cnnc23)c1O | inconclusive: 3.29 µM [inhibitor, full curve, poor fit] |
| COc1ccccc1NC(=S)N(Cc1cccs1)C1CCCC1 | inconclusive: 16.5 µM [inhibitor, partial curve, poor fit] |
| Cc1cccc(NC(=O)c2nc[nH]c2C(=O)N[C@@H](C)c2ccccc2)c1 | inconclusive: 14.7 µM [inhibitor, single point] |
| Fc1ccc(-c2csc(N3CCOCC3)n2)cc1 | inactive |
| Cc1ccc(N=Cc2cc3c(cc2O)OC(N)=C(C#N)C3c2ccccc2)cc1 (stereo not drawn) | inactive |
| O=C(NCc1ccco1)c1c(O)c2cccc3c2n(c1=O)CCC3 | active: 13.1 µM |
| O=C(NC(CC(=O)N1CCN(c2ccc([N+](=O)[O-])cc2)CC1)c1ccccc1)c1ccccc1Cl (stereo not drawn) | active: 11.7 µM |
| COC(=O)Cc1ccc(NC(=S)NCCSc2ccc(C)cc2)cc1 | inconclusive: 18.5 µM [inhibitor, single point] |
| O=C(NCc1ccccn1)c1ccc(Cl)c(S(=O)(=O)Nc2ccccc2C(=O)NCc2ccccn2)c1 | active: 9.28 µM |
| O=C(O)c1cccc(S(=O)(=O)N(Cc2ccccc2)c2ccc(Cl)cc2)c1 | inactive |
| Cc1ccc(Cn2ncc(C)c2N)o1 | inactive |
| Cc1nc2ccccc2c(=O)n1/N=C/c1ccc(O)c(O)c1O | inactive |
| CCNC(=S)NC1CC2CCCC(C1)N2CCc1ccccc1 (stereo not drawn) | active: 8.28 µM |
| CCOC(=O)C1(Cc2cccc(OC)c2)CCN(Cc2cccc(O)c2)CC1 | inconclusive: 0.0029 µM [inhibitor, full curve, poor fit] |
| O=C(COc1ccc(Br)cc1)N(Cc1cccs1)C1CCS(=O)(=O)C1 (stereo not drawn) | inconclusive: 9.28 µM [inhibitor, partial curve, poor fit] |
| CC(=O)Nc1cccc(NC(=O)Cc2ccc3ccccc3c2)c1 | inconclusive: 1.17 µM [inhibitor, full curve, poor fit] |
| COc1cc(C(=O)N2CCSCC2)ccc1OC1CCN(C(C)=O)CC1 | inconclusive: 0.0026 µM [inhibitor, full curve, poor fit] |
| O=[N+]([O-])c1cccc(-c2ccc(C(=S)N3CCN(c4ccc(F)cc4)CC3)o2)c1 | inactive |
| COc1ccc(OC)c(NP(=O)(Oc2ccccc2)Oc2ccccc2)c1 | inconclusive: 5.86 µM [inhibitor, partial curve] |

| Structure (SMILES) | Potency |
| --- | --- |
| Cc1ccccc1C(=O)NNC1=NCCC1 | inconclusive: 2.94 µM [inhibitor, full curve] |
| Cc1ccc(C(=O)OCC(=O)NC2CCCC2)cc1C | inactive |
| CN1CCN(CC(=O)Nc2ccccc2Oc2ccccc2)CC1 | inconclusive: 11.7 µM [inhibitor, partial curve, poor fit] |
| CCOC(=O)N1CCN(C(=O)C2CC(=O)N(c3ccc(C)cc3)C2)CC1 (stereo not drawn) | inconclusive: 18.5 µM [inhibitor, single point] |
| N#C/C(=C\c1cc(O)c(O)c(O)c1)C(N)=O | inconclusive: 18.5 µM [inhibitor, single point] |
| COc1ccc([C@H]2CC(=O)C=C(c3cccc(CO)c3)C2)cc1 | inconclusive: 14.7 µM [inhibitor, single point] |
| c1cc2c3c(cccc3c1)NC1(CCCCC1)N2 | inconclusive: 5.86 µM [inhibitor, partial curve, poor fit] |
| CCCOc1cccc(C(=O)NCCNC(=O)c2ccc(C)nc2)c1 | inactive |
| CCOc1ccccc1N(CC)C(=O)Cn1ncc2c(=O)oc3ccccc3c21 | inconclusive: 11.7 µM [inhibitor, single point] |
| Cc1ccc(NC2=CC(=O)CC(C)(C)C2)cc1C | inconclusive: 18.5 µM [inhibitor, single point] |
| CCOC(=O)c1nnn(-c2nc(OC)nc(N(C)C)n2)c1-c1ccccc1 | active: 2.33 µM |
| CCN1/C(=C2\C(=O)N(C)C(=S)N2C)C=Cc2cc(C)ccc21 | inactive |
| O=C(Cc1ccccc1)c1ccccc1C(=O)N1CCCCC1 | inactive |
| Cc1ccc(NC(=O)C2CCCCC2)c(O)c1 | inactive |
| CS(=O)(=O)N1CCC(Oc2ccccc2C(=O)N2CCN(CC3CC3)CC2)CC1 | inactive |
| Cn1c(=O)[nH]c(=O)c2c1nc(CN(Cc1ccccc1)Cc1ccccc1)n2CCN1CCOCC1 | inactive |
| c1coc(-c2ncc[nH]2)c1 | inconclusive: 2.62 µM [inhibitor, single point] |
| Cn1c2ccc(F)cc2c2nnc(SCC(=O)Nc3cccc(O)c3)nc21 | inconclusive: 9.28 µM [inhibitor, single point] |
| O=C(c1cccc(C(F)(F)F)c1)N1CCOC12CCN(c1ncc(C(F)(F)F)cc1Cl)CC2 | inconclusive: 16.5 µM [inhibitor, partial curve, poor fit] |
| CCOc1ccccc1N1C(=O)CC(Sc2n[nH]c(-c3ccccc3)n2)C1=O (stereo not drawn) | inactive |
| Cc1cccc(/C(N)=N/OC(=O)c2ccc3c(c2)OCO3)c1 | inconclusive: 18.5 µM [inhibitor, single point] |
| CC(=O)c1ccccc1OCC(=O)Nc1cccc(S(=O)(=O)N2CCCC2)c1 | inconclusive: 13.1 µM [inhibitor, single point] |
| O=C(NC1CCc2ccccc21)c1cc(COc2cncc(Cl)c2)on1 (stereo not drawn) | inactive |
| Cc1nc(NC(=O)c2cccc(Cl)c2)sc1C(=O)N1CCCCC1 | inactive |
| COc1ccc([C@H]2CC(=O)C=C(c3c(C)cc(C)cc3C)C2)cc1 | inactive |

In the list so far, two have a cyano group.

| Structure (SMILES) | Potency |
| --- | --- |
| Cc1ccc(N=Cc2cc3c(cc2O)OC(N)=C(C#N)C3c2ccccc2)cc1 (stereo not drawn) | inactive |
| N#C/C(=C\c1cc(O)c(O)c(O)c1)C(N)=O | inconclusive: 18.5 µM [inhibitor, single point] |

Carrying on:

| Structure (SMILES) | Potency |
| --- | --- |
| CC(=O)c1cccc(NC(=O)CSc2ccc(-c3ccccn3)nn2)c1 | inconclusive: 18.5 µM [inhibitor, single point] |
| Cc1ccc(CN2CCNC(=O)C2CC(=O)N(C)Cc2cnccn2)cc1 (stereo not drawn) | active: 13.1 µM |
| Fc1ccccc1-c1cc2ccccc2cn1 | inconclusive: 16.5 µM [inhibitor, single point] |
| COC(=O)[C@@H](Cc1c[nH]c2ccccc12)NC(=O)CCC(=O)c1ccc(Br)cc1 | inactive |
| Clc1ccccc1Cc1noc(CN2CCCCC2c2ccccn2)n1 (stereo not drawn) | inconclusive: 18.5 µM [inhibitor, single point] |
| CC(=O)NCCn1c(SCC(=O)c2ccc(Cl)cc2)nc2ccccc2c1=O | inconclusive: 9.28 µM [inhibitor, partial curve, poor fit] |
| CCOc1cc(NC(=S)NCCOC)c(OCC)cc1NC(=O)c1ccco1 | inconclusive: 13.1 µM [inhibitor, single point] |
| COc1c(O)cc2c(c1O)C(=O)CC(c1ccccc1)O2 (stereo not drawn) | inconclusive: 1.65 µM [inhibitor, full curve] |
| COc1cccc(CCc2nnc(CCC(=O)NC(C)Cc3cccs3)o2)c1 (stereo not drawn) | inactive |
| CC1CCN(Cc2ccc(NC(=O)C3CCN(c4nnc(-n5cccc5)s4)CC3)cc2)CC1 | inactive |
| CCSc1nsc(NC(=O)Nc2ccccc2OC)n1 | inconclusive: 0.465 µM [inhibitor, partial curve, poor fit] |
| COCCCN1C(=O)C2C(C(=O)Nc3cccc(Cl)c3)C3C=CC2(O3)C1C(=O)NC1CCCCC1 (stereo not drawn) | inactive |
| CCCN(CC(=O)NC(=O)NC1CCCCC1)CC(=O)Nc1cc(Cl)ccc1Cl | inconclusive: 18.5 µM [inhibitor, single point] |
| CCN(Cc1ccccc1)C(=O)CC(=O)N(CC)Cc1ccccc1 | inactive |
| CCCn1c(CNC(=O)Cc2ccccc2)nc2ccccc21 | inconclusive: 4.15 µM [inhibitor, partial curve, poor fit] |
| Cc1ccc(N2CC(C(=O)Nc3ccc(N4CCOCC4)cc3)CC2=O)cc1C (stereo not drawn) | inconclusive: 10.4 µM [inhibitor, partial curve, poor fit] |
| CCCC[N+]12CCC(CC1)C(=C(c1ccccc1)c1ccccc1)C2 | active: 0.738 µM |
| COc1ccc(CCN2CNc3c(c(=O)n(C)c(=O)n3C)C2)cc1OC | active: 13.1 µM |
| CCC(=O)N1CCN(C(C)=O)C1c1ccccc1 (stereo not drawn) | inconclusive: 3.7 µM [inhibitor, full curve, poor fit] |
| C#CCOCCOCCOCCNc1nc(N2CCN(C(=O)CCCCCCCCCCNC(=O)[C@H](CCCCN)n3cc(C[C@@H](C)CC)nn3)CC2)nc(N2CCN(C(=O)CCCCCCCCCCNC(=O)[C@H](CCCN=C(N)N)n3cc(C[C@@H](C)CC)nn3)CC2)n1 | active: 3.29 µM |
| N#Cc1c(SCC(=O)Nc2ccc(Cl)cc2Cl)sc2c(O)cc(=O)[nH]c12 | inactive |
| CC(C)(C)C(=O)NCc1ccc(C(=O)CSc2nnc(C3CC3)n2C2CC2)s1 | inconclusive: 9.28 µM [inhibitor, partial curve] |
| COc1ccnc(-n2cccc2/C=N/O)c1C#N | inconclusive: 18.5 µM [inhibitor, single point] |
